The values that follow come from PMC4960799.

By UniProt entry, the sequences of proteins in these tests, tags left out. Where a name states a change or a piece, a line headed by the entry shows the natural chain unless it says otherwise.
UniProt P20152: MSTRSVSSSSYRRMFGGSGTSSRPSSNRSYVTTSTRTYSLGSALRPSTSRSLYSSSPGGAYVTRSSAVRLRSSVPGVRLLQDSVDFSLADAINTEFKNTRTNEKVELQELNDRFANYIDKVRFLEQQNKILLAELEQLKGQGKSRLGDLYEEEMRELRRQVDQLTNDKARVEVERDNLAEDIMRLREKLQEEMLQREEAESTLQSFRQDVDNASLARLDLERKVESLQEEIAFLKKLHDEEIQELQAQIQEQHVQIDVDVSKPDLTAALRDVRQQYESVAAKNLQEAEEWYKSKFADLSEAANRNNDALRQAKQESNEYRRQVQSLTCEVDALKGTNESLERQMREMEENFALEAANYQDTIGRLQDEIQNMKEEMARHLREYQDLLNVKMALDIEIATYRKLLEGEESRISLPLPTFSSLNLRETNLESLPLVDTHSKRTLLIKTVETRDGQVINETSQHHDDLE
UniProt P63330: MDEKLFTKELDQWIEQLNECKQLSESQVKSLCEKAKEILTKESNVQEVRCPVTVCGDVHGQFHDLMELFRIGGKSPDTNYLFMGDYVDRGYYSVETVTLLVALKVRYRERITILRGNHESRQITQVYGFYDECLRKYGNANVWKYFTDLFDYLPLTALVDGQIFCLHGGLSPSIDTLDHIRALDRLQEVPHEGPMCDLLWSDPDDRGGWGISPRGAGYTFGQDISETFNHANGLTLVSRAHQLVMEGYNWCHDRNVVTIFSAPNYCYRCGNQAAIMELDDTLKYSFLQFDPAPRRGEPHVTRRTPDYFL

The target of the experiment is vimentin (mouse (endogenous in tracheal rings)) (UniProt P20152). Nature of the experiment: co-IP; extracts of mouse tracheal rings, unstimulated or stimulated with ACh (10^-4 M, 5 min); incubated overnight with antibody, protein A-Sepharose beads; washed four times in 50 mM Tris-HCl pH 7.6, 150 mM NaCl, 0.1 % Triton X-100; immunoblot.

Results are given in words; binding and its absence hold for the method and conditions named. Binding seen in cells or lysates may run through a third protein. A result given as binding can be weak or reduced; the word gives no strength.

Consider “protein phosphatase 2A (from UniProt P63330) (enzyme)”, for which the binding entry is listed as “binds weakly”.
